Consider 37 targets from the supplement of paper PMC12819154, “High-throughput peptide-centric local stability assay extends protein–ligand identification to membrane proteins, tissues and bacteria” (Nature Structural & Molecular Biology, 2025).

The chains behind the UniProt entries cited, without tags or fusion partners. Where a name states a change or a piece, a line headed by the entry shows the natural chain unless it says otherwise.
UniProt P51587, whole entry: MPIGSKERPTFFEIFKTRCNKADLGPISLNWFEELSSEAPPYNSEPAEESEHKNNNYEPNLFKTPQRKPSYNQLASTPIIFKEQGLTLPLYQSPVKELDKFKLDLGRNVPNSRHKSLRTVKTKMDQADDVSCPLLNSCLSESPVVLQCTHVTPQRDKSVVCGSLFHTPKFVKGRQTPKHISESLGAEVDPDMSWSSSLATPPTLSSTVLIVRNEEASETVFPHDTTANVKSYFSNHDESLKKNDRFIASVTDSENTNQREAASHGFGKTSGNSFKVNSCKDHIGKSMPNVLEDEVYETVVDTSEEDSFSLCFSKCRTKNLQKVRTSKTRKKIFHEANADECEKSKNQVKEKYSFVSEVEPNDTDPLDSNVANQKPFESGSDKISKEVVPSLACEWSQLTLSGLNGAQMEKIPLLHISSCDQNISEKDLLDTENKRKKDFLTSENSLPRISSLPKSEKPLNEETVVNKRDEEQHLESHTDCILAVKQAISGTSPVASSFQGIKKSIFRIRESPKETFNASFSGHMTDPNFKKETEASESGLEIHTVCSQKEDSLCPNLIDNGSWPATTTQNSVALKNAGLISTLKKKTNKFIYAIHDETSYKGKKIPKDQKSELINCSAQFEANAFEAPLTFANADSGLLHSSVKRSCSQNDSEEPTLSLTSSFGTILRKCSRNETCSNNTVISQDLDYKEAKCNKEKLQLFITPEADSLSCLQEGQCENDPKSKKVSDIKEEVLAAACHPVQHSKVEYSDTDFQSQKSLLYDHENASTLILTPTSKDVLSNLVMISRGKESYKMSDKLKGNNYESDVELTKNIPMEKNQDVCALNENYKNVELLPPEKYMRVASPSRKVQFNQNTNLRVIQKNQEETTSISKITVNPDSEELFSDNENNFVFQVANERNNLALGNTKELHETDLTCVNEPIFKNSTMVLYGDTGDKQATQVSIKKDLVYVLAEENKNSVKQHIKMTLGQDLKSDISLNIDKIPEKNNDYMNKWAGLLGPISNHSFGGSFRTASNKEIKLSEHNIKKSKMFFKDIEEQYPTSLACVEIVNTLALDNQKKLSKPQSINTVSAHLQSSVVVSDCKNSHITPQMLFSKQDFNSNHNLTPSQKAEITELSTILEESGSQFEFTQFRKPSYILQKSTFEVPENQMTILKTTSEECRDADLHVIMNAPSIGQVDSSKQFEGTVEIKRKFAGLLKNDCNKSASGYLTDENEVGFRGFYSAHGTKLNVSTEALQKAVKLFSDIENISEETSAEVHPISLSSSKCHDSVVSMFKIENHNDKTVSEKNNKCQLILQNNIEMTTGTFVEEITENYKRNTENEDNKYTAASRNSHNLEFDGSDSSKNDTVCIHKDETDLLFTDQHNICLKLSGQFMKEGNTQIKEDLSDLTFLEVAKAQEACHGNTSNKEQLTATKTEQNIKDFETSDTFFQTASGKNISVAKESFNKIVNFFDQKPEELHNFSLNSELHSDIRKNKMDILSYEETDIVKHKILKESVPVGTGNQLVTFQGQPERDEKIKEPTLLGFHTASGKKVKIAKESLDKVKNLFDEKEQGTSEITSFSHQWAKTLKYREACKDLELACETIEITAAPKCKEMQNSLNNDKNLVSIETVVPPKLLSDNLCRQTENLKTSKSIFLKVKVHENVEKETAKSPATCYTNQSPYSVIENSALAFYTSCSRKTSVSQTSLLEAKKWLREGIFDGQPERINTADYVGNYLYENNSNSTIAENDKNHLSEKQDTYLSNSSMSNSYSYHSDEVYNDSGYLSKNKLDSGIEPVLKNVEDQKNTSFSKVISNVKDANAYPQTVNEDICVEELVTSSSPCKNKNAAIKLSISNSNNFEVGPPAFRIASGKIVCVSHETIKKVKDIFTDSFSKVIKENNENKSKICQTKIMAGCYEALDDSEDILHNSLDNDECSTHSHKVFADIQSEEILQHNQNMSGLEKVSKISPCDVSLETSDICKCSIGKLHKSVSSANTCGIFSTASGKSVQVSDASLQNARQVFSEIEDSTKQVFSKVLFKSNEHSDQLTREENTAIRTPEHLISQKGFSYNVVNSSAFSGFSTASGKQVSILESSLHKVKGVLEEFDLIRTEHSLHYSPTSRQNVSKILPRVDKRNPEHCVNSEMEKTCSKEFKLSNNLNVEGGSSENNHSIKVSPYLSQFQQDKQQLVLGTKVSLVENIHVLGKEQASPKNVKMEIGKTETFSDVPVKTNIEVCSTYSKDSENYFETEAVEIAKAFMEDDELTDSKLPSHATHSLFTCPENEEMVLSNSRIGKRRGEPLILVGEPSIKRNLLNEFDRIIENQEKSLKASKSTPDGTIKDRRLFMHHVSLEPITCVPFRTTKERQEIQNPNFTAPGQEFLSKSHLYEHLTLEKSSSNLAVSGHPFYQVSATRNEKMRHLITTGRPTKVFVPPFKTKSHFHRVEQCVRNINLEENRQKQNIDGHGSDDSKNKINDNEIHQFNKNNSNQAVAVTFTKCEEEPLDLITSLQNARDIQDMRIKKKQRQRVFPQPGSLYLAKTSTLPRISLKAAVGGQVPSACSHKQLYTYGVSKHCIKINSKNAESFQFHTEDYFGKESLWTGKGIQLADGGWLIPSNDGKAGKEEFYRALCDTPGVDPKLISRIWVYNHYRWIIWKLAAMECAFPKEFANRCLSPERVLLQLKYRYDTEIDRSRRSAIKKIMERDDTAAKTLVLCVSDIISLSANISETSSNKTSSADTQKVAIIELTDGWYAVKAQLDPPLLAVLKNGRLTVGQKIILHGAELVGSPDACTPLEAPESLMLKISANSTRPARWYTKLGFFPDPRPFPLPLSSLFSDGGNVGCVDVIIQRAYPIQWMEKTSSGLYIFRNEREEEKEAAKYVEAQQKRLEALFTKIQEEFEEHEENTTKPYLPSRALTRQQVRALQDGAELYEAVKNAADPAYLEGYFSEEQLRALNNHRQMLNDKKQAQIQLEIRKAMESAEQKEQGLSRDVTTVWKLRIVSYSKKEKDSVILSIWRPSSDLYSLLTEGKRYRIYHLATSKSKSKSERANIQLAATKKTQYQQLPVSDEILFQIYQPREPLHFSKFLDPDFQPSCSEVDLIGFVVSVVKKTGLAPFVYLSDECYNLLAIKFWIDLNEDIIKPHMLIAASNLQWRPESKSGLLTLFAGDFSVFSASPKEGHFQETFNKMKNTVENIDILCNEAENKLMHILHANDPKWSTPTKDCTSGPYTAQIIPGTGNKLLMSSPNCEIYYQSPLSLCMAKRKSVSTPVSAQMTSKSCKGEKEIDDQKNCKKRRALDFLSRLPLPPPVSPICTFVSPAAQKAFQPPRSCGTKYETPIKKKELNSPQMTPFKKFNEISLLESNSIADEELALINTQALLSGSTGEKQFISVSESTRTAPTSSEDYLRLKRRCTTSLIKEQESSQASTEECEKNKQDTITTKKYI
UniProt P48382: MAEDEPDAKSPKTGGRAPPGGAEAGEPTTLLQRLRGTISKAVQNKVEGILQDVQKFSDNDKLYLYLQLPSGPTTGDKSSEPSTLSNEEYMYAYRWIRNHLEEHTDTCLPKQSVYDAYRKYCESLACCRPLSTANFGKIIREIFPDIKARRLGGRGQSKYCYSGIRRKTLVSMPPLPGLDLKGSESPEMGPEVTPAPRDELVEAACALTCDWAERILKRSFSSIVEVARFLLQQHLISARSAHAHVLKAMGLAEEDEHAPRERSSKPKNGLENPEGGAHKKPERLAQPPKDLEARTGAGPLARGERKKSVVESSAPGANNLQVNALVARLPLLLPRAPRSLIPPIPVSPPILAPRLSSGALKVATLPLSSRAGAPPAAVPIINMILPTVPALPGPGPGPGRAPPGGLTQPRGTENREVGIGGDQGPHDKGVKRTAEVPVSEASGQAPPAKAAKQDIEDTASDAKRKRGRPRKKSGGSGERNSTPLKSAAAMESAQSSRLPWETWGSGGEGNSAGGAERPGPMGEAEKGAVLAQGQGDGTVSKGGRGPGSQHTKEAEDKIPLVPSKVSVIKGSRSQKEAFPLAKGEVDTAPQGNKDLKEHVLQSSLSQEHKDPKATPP
UniProt P54368: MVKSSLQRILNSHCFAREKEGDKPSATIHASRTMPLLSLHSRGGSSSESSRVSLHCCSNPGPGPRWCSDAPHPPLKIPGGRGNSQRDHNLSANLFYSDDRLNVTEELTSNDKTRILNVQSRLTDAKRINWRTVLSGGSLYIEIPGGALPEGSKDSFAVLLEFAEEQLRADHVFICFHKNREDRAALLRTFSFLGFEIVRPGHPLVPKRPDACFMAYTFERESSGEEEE
UniProt P52788: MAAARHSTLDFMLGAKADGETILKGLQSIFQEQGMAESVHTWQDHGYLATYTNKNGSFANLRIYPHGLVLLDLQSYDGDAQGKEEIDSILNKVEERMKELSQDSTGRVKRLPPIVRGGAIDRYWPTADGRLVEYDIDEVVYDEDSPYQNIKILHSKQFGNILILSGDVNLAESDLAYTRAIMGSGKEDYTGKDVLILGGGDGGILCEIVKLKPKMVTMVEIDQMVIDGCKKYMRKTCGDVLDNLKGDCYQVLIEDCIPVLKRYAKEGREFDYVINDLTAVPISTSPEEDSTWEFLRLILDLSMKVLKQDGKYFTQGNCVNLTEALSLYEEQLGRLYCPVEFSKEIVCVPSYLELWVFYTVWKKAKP
UniProt P50990: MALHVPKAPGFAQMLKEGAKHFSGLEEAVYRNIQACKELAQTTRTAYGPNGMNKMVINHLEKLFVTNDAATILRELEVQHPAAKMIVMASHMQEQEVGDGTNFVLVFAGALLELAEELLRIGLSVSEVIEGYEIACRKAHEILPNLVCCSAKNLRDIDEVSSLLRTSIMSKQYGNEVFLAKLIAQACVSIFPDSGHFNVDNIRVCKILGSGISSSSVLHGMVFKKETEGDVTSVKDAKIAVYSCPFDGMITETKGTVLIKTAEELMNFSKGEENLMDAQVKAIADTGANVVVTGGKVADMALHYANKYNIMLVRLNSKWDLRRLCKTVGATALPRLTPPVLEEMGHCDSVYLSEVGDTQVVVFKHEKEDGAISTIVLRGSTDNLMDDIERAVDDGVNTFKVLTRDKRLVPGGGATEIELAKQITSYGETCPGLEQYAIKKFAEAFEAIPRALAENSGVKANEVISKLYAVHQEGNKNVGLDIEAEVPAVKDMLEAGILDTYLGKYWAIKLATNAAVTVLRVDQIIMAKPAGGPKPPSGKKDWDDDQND
UniProt P52739: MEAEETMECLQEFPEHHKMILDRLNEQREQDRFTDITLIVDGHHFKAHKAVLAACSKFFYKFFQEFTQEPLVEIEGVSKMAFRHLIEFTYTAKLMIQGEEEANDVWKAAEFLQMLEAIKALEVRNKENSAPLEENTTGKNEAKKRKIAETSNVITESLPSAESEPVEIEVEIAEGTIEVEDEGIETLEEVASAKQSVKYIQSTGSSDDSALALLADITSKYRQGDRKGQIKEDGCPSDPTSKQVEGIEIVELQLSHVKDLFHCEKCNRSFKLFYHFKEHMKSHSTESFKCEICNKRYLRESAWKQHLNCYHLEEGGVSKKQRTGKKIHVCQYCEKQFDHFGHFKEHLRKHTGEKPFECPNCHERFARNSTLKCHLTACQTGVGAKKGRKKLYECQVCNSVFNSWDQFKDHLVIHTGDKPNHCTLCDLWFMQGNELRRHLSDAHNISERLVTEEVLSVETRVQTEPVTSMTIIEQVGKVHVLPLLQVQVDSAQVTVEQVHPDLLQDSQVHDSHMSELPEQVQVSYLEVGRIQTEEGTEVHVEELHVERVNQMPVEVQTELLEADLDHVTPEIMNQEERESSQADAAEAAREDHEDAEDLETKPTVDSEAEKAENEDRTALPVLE
UniProt P53985: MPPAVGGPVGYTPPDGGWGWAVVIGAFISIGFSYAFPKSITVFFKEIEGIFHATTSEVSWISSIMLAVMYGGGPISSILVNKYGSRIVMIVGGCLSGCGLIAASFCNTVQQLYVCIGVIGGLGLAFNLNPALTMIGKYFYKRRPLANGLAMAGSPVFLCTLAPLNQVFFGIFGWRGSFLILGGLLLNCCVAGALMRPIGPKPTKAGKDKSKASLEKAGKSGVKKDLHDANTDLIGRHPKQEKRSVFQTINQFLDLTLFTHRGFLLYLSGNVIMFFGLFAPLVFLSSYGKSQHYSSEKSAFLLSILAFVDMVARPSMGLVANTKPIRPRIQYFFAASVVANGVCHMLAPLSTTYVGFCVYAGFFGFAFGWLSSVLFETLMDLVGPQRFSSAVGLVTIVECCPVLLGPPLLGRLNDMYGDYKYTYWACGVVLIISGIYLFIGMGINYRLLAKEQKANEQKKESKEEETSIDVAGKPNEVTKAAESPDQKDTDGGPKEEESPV
UniProt P51148: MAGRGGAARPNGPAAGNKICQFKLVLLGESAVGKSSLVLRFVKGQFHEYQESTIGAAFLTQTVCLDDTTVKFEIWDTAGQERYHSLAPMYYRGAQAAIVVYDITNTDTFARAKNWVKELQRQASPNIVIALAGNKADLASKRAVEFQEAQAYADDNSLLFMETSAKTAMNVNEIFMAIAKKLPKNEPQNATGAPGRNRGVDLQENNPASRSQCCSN

The list shows a part of the results. Most entries show no effect beyond the scatter of the controls.

Compound in this experiment: Cc1nc(Nc2ncc(C(=O)Nc3c(C)cccc3Cl)s2)cc(N2CCN(CCO)CC2)n1 [dasatinib]
As to the kind of experiment: log2 fold change of tryptic peptide abundance, ligand vs vehicle (limited proteolysis) (log2 ratio); higher = more trypsin-susceptible (destabilized). The conditions noted are these: ligand concentration: 5 uM; sample: K562 cleared lysate.
As for “RXRG (peptide sequence: HICAICGDR, peptide start residue: 133) (UniProt P48443)”, the log2 fold change turned out to be 0.097.

With “BRCA2 (peptide sequence: VSLVENIHVLGK, peptide start residue: 2171) (UniProt P51587)”, the log2 fold change was found to be 0.701. Turning to “RFX5 (peptide sequence: NGLENPEGGAHKKPER, peptide start residue: 268) (UniProt P48382)”, the log2 fold change came out at 0.766. On to “METAP1 (peptide sequence: LQCPTCIK, peptide start residue: 20) (UniProt P53582)”, for which the log2 fold change came out at 0.0148. In the case of “PPP5C (peptide sequence: AIAGDEHKR, peptide start residue: 151) (UniProt P53041)”, the log2 fold change is -0.212. For the target “AFF1 (peptide sequence: VSQPAAPPEGPR, peptide start residue: 522) (UniProt P51825)”, the log2 fold change amounted to 0.266. Under “UniProt P54368 (peptide sequence: WCSDAPHPPLKIPGGR, peptide start residue: 66)” stands 0.302. Under “PGD (peptide sequence: EAWPHIK, peptide start residue: 148) (UniProt P52209)” stands -0.106; under “BLM (peptide sequence: KVAFDCLEWIR, peptide start residue: 873) (UniProt P54132)”, -0.445. Turning to “RAD23A (peptide sequence: ILSDDVPIRDYR, peptide start residue: 54) (UniProt P54725)”, the log2 fold change is -0.163. In the case of “EIF2B2 (peptide sequence: IESFVETLKR, peptide start residue: 15) (UniProt P49770)”, the log2 fold change came to 0.363.

Take “CDK8 (peptide sequence: NTYTNCSLIK, peptide start residue: 286) (UniProt P49336)”: the log2 fold change was 0.19. As for “CLCN3 (peptide sequence: DLTIAIESAR, peptide start residue: 711) (UniProt P51790)”, the log2 fold change was -0.207. Regarding “AGFG1 (peptide sequence: SLLGDSAPTLHLNK, peptide start residue: 162) (UniProt P52594)”, the log2 fold change is -0.111. Turning to “PITPNB (peptide sequence: ADEDPALFQSVK, peptide start residue: 156) (UniProt P48739)”, the log2 fold change is -0.115. As for “SMS (peptide sequence: MKELSQDSTGR, peptide start residue: 97) (UniProt P52788)”, the log2 fold change worked out at 0.197. On to “PRIM1 (peptide sequence: SGIVEYLSLVK, peptide start residue: 183) (UniProt P49642)”, for which the log2 fold change came to 0.101.

With “UniProt P49450 (peptide sequence: IRGLEEGLG, peptide start residue: 132)”, the log2 fold change turned out to be 0.158. As to “UniProt P49720 (peptide sequence: LNLYELK, peptide start residue: 71)”, the log2 fold change is -0.0289.

For the target “CCT8 (peptide sequence: TAEELMNFSK, peptide start residue: 261) (UniProt P50990)”, the log2 fold change was determined as 0.0647.

Consider “MTHFS (peptide sequence: GKICFIPR, peptide start residue: 75) (UniProt P49914)”, for which the log2 fold change was determined as 0.133. Under “ZNF131 (peptide sequence: HLSDAHNISER, peptide start residue: 438) (UniProt P52739)” stands -0.92. On to “ARFIP2 (peptide sequence: LESAQATFQAHR, peptide start residue: 258) (UniProt P53365)”, for which the log2 fold change came to 0.506. Take “RAB27A (peptide sequence: SNGHASTDQLSEEKEKGACGC, peptide start residue: 201) (UniProt P51159)”: the log2 fold change was -0.241. For the target “SMTN (peptide sequence: TTFTIEIK, peptide start residue: 459) (UniProt P53814)”, the log2 fold change is -0.248.

Take “UniProt P51812 (peptide sequence: GAMAATYSALNR, peptide start residue: 701)”: the log2 fold change was 0.0853.

With “NDUFA8 (peptide sequence: FDECVLDK, peptide start residue: 107) (UniProt P51970)”, the log2 fold change was -0.397.

On to “MCM2 (peptide sequence: ERISDMCK, peptide start residue: 217) (UniProt P49736)”, for which the log2 fold change turned out to be 0.475. As to “CRK (peptide sequence: GMIPVPYVEK, peptide start residue: 180) (UniProt P46108)”, the log2 fold change was found to be 0.236.

On to “SLC16A1 (peptide sequence: DLHDANTDLIGR, peptide start residue: 225) (UniProt P53985)”, for which the log2 fold change is 0.226. For “HCFC1 (peptide sequence: SLHSATTIGNK, peptide start residue: 256) (UniProt P51610)”, the log2 fold change is -0.418. On to “PREP (peptide sequence: VVPLHSLK, peptide start residue: 644) (UniProt P48147)”, for which the log2 fold change was -0.185. Turning to “ERF (peptide sequence: ARPPGPPDLGAFRGPPLAR, peptide start residue: 206) (UniProt P50548)”, the log2 fold change was -0.54. Regarding “AKR1C2 (peptide sequence: LLEMILNKPGLK, peptide start residue: 172) (UniProt P52895)”, the log2 fold change was determined as 0.121. With “PRKAG1 (peptide sequence: LVVFDTSLQVK, peptide start residue: 48) (UniProt P54619)”, the log2 fold change is -0.384. As for “RAB5C (peptide sequence: GVDLQENNPASR, peptide start residue: 199) (UniProt P51148)”, the log2 fold change stood at 0.0462. As for “UQCRFS1 (peptide sequence: EIEQEAAVELSQLRDPQHDLDR, peptide start residue: 183) (UniProt P47985)”, the log2 fold change was 0.0317.
